Mtb growth Cornell: 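Whole-cell assay for inhibitors of Mycobacterium tuberculosis growth, labelled Cornell in the record; the read-out is not stated. The concentration is filed as 10 mM, unlikely as a test dose, so the dose is not known. The record gives no direction; compounds strong in two other growth screens of this library score well above the rest, so higher reads as stronger inhibition. Of about 53,000 compounds tested this way, about 900 (1.7%) reached 50% or more in at least one test.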
Mtb heat-shock: 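Assay on Mycobacterium tuberculosis, filed only as a heat shock assay from Cornell; the read-out is not stated. The concentration is filed as 10 mM, unlikely as a test dose, so the dose is not known. Higher reads as stronger inhibition (inferred: compounds with an IC50 in retests scored well above the rest). Size under these conditions: about 69,000 compounds, about 930 of them at 50% or above in at least one test.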

Each number is a percent effect as filed. The record does not define 0% and 100%; most values in the screen are far below 50% and negative numbers occur (in some assays of this library far below -100). The compounds are a random part of those screened. A dash means the value is not listed here; it may have been measured.

| # | SMILES | Mtb growth Cornell | Mtb heat-shock |
|---|---|---|---|
| 1 | `COC(=O)c1cccc(S(=O)(=O)Nc2ccc(Cl)c(C(N)=O)c2)c1` | 6.632% | -4.71% |
| 2 | `CC(NC(=O)CSCC#N)c1cccc(Cl)c1` (stereo not drawn) | -4.031% | 3.578% |
| 3 | `[H][C@@]12CN(c3ncccn3)C[C@]1([H])N(CCCc1ccc(F)cc1)C(=O)O2` | 39.25% | -13.81% |
| 4 | `COc1c(C)cnc(CSc2nnc(C)s2)c1C` | 15.36% | -2.865% |
| 5 | `O=S(=O)(c1ccc(Cl)cc1)N1CCOC[C@H](Oc2cnccn2)C1` | -11.61% | -48.23% |
| 6 | `N#Cc1c(SCCN2CCOCC2)sc2c(O)cc(O)nc12` | -39.12% | -20.66% |
| 7 | `CCN(C)CC(C)Cn1cnc(-c2ccccc2)c1C` (stereo not drawn) | - | -26.6% |
| 8 | `CC(=O)N1CCC2(CCN(S(=O)(=O)c3ccccc3)CC2)C1` | -13.67% | -45.98% |
| 9 | `C=C(C)COc1ccccc1C(=O)NCCc1cc(O)nc(C)n1` | -9.697% | -12.53% |
| 10 | `Cc1nc(CN2CCC3(C2)CN(Cc2ccco2)C3)cs1` | -10.47% | 18.48% |
| 11 | `OCCN1CCCC(c2nccnc2Oc2ccccc2)C1` (stereo not drawn) | -12.61% | -13.13% |
| 12 | `CCCN1CCc2[nH]cnc2C12CCN(C(=O)Cn1ccnc1C)CC2` | - | -11.62% |
| 13 | `NC(=O)NCC(=O)N1CCC(c2cc(-c3ccccc3Cl)n[nH]2)CC1` | 20.37% | -7.676% |
| 14 | `CNC(=O)CCN1CCC(c2nnc(Cn3cccn3)n2C2CC2)CC1` | -6.504% | -17.05% |
| 15 | `CC(NC(=O)N1CCN(c2ncccn2)CC1)c1ccc(C#N)cc1` (stereo not drawn) | -12.2% | 12.5% |
| 16 | `O=C(CCc1ccncc1)N1CCc2cc(Cl)cc(Cl)c2C1` | 1.45% | 21.27% |
| 17 | `[H][C@@]12CN(c3nccs3)C[C@]1([H])N(Cc1ccccc1OC)C(=O)O2` | 0.2323% | 8.208% |
| 18 | `Cc1nn(C)c(C)c1CN(C)C(=O)c1cc(NC(=O)C2CC2)n(C)n1` | - | -2.917% |
| 19 | `Cc1nc(C2CCCN2C(=O)Cc2ccc3c(c2)OCO3)nc(O)c1C` (stereo not drawn) | -4.906% | -4.848% |
| 20 | `Cc1ccc(CNc2n[nH]c(C)n2)cc1` | -2.535% | 14.4% |
| 21 | `Cc1nn(C)c(C)c1Cc1nc(N(C)C)no1` | 35.48% | -0.6303% |
| 22 | `Cc1cccnc1CC(C)Nc1nc(N)nc2c1CCNC2` (stereo not drawn) | -17.07% | -53.49% |
| 23 | `COc1ccc(CNc2c(N3CCN(C)CC3)c(=O)c2=O)cc1` | 18.99% | -20.05% |
| 24 | `CCCS(=O)(=O)CCN1CCN(c2cc(F)ccc2F)CC1` | 7.718% | -5.042% |
| 25 | `Cl.Cl.c1c(CN2CCCC2)nc2n1CCNC2` | -56.34% | -47.3% |
| 26 | `[H][C@@]12CN(Cc3ccccc3OC)CC[C@]1([H])N(C(C)=O)C[C@H]2c1ccsc1` | -51.9% | -20.96% |
| 27 | `COC[C@H]1CCC[C@]12CN(Cc1cccc(C)n1)CCO2` | -10.89% | -27.79% |
| 28 | `O=C(CN1CCNC1=O)N1CCc2nnc(-c3ccccc3)n2CC1` | 4.986% | -22.09% |
| 29 | `CNc1nc(C(=O)N2CCn3nc(C(=O)OC)cc3C2)cs1` | 9.007% | 21.82% |
| 30 | `Cc1noc2ncc(C(=O)N3CCCC3c3ccncc3)cc12` (stereo not drawn) | -42.56% | -13.33% |
| 31 | `N#Cc1ccc(N2CC3(CCN(c4nccs4)C3)C2)nc1.O=CO.O=CO` | 26.59% | -36.28% |
| 32 | `CCOc1ccc(C(=O)N2Cc3cnc(CC)nc3C2)o1` | 21.69% | -8.517% |
| 33 | `c1cc(CCN2CCN(c3ccc4nncn4n3)CC2)ccn1` | - | -5.962% |
| 34 | `Cc1ccc2nc3n(c2c1)[C@@H](CNC(=O)c1ccncc1)COC3` | -21.57% | -25.46% |
| 35 | `[H][C@@]12CNC[C@]1(C(=O)O)CN(C(=O)Nc1ccc(-c3ccccc3)cc1)C2` | -25.85% | 11.34% |
| 36 | `CCc1c(C)sc(NC(=O)CN2CCOCC2)c1C(=O)OC` | 13.88% | 24.22% |
| 37 | `CNc1nc(N2CCN(Cc3ccsc3)C(CCO)C2)nc2c1CCC2` (stereo not drawn) | 21.82% | -6.003% |
| 38 | `Cc1n[nH]c(C)c1CC(=O)N1CC[C@@](C)(O)[C@H](Oc2ccccc2)C1` | 49.2% | 13.66% |
| 39 | `CCc1nnc2ccc(N3CCN(S(=O)(=O)c4ccc(C)s4)CC3)nn12` | -7.022% | -3.753% |
| 40 | `CN(C)C(=O)c1cccnc1N1CCOC(c2ccc(Cl)cc2)C1` (stereo not drawn) | 18.96% | -20.57% |
| 41 | `COCCNc1ccc(CC2CCCN(c3ncccn3)C2)nn1` (stereo not drawn) | 39.96% | -7.568% |
| 42 | `CCN(CC)C(=O)c1nnn(Cc2ccccc2)c1OC` | - | -21.35% |
| 43 | `CC(C)Cc1noc(CN2CCC(NC(=O)c3cccs3)CC2)n1` | 9.819% | -10.99% |
| 44 | `CC(C)NC(=O)c1ccc2c(c1)C1(CCN(C)CC1)C(=O)N2.O=C(O)C(F)(F)F` | - | -21.13% |

Once more, the final 6:

SMILES,Mtb growth Cornell,Mtb heat-shock
CCc1nnc2ccc(N3CCN(S(=O)(=O)c4ccc(C)s4)CC3)nn12,-7.022%,-3.753%
CN(C)C(=O)c1cccnc1N1CCOC(c2ccc(Cl)cc2)C1 (stereo not drawn),18.96%,-20.57%
COCCNc1ccc(CC2CCCN(c3ncccn3)C2)nn1 (stereo not drawn),39.96%,-7.568%
CCN(CC)C(=O)c1nnn(Cc2ccccc2)c1OC,-,-21.35%
CC(C)Cc1noc(CN2CCC(NC(=O)c3cccs3)CC2)n1,9.819%,-10.99%
CC(C)NC(=O)c1ccc2c(c1)C1(CCN(C)CC1)C(=O)N2.O=C(O)C(F)(F)F,-,-21.13%

From ChEMBL document CHEMBL3988442, “University of Dundee, Small-Polar-MMV Screening Library” (2021).